Assay results taken from patent US20070184018A1, “Anthranilamide insecticides” (priority 2004, published 2007).
Some entries share one result that the patent states for a list of compounds.

Columns and labels:
Format in all cases: in vivo
[1] = test system: beet armyworm (Spodoptera exigua); assay: Test J: foliar control of beet armyworm on soybean plants; settings: at 10 ppm or lower rates, treated soybean leaves, larvae, 4 days
[2] = test system: tobacco budworm (Heliothis virescens); assay: Test H: foliar control of tobacco budworm on cotton plants; settings: at 10 ppm or lower rates, treated cotton leaves, third-instar larvae, 4 days
[3] = test system: fall armyworm (Spodoptera frugiperda); assay: Test B: control of fall armyworm on corn (maize) plant, foliar spray; settings: sprayed at 50 ppm, 1-day-old larvae, 6 days, visually rated
[4] = test system: cabbage looper (Trichoplusia ni); assay: Test I: foliar control of cabbage looper on cotton plants; settings: at 10 ppm or lower rates, treated cotton leaves, third-instar larvae, 4 days
[5] = test system: diamondback moth (Plutella xylostella); assay: Test A: control of diamondback moth on radish plant, foliar spray; settings: sprayed at 50 ppm, neonate larvae, 6 days, visually assessed foliage consumed

Row | Structure (SMILES) | mortality [1] | mortality [2] | excellent levels of plant protection (feeding damage) [3] [%] | mortality [4] | very good to excellent levels of plant protection (feeding damage) [5] [%]
1 | Cc1cc(C#N)cc(C(=O)NC(C)C)c1NC(=O)c1cc(Br)nn1-c1ccccc1Cl [Compound 1] | at least 80% | at least 80% | ≤ 20 | at least 80% | ≤ 20
2 | CC(C)NC(=O)c1cc(Br)cc(Br)c1NC(=O)c1cc(C(F)(F)F)nn1-c1ccccc1Cl [Compound 6] | at least 80% | at least 80% | ≤ 20 | – | ≤ 20
3 | Cc1cc(Br)cc(C(=O)NC(C)(C)C)c1NC(=O)c1cc(Br)nn1-c1ccccc1Cl [Compound 7] | at least 80% | at least 80% | ≤ 20 | – | ≤ 20
4 | CNC(=O)c1cc(Br)cc(C)c1NC(=O)c1cc(Br)nn1-c1ccccc1Cl [Compound 8] | at least 80% | at least 80% | ≤ 20 | – | ≤ 20
5 | Cc1cc(Br)cc(C(=O)NC(C)C)c1NC(=O)c1cc(Br)nn1-c1ccccc1Cl [Compound 10] | at least 80% | at least 80% | ≤ 20 | – | ≤ 20
6 | C#CCNC(=O)c1cc(Br)cc(C)c1NC(=O)c1cc(Br)nn1-c1ccccc1Cl [Compound 11] | at least 80% | at least 80% | ≤ 20 | – | ≤ 20
7 | Cc1cc(Br)cc(C(=O)NC(C)C)c1NC(=O)c1cc(C(F)(F)F)nn1-c1c(Cl)cccc1Cl [Compound 12] | at least 80% | at least 80% | ≤ 20 | – | ≤ 20
8 | Cc1cc(Br)cc(C(=O)NC(C)(C)C)c1NC(=O)c1cc(C(F)(F)F)nn1-c1c(Cl)cccc1Cl [Compound 13] | – | at least 80% | ≤ 20 | – | ≤ 20
9 | CNC(=O)c1cc(Br)cc(C)c1NC(=O)c1cc(C(F)(F)F)nn1-c1c(Cl)cccc1Cl [Compound 14] | at least 80% | at least 80% | ≤ 20 | – | ≤ 20
10 | C#CCNC(=O)c1cc(Br)cc(C)c1NC(=O)c1cc(C(F)(F)F)nn1-c1c(Cl)cccc1Cl [Compound 15] | at least 80% | at least 80% | ≤ 20 | – | ≤ 20
11 | CC(C)NC(=O)c1cc(Cl)cc(Cl)c1NC(=O)c1cc(C(F)(F)F)nn1-c1ccccc1Cl [Compound 16] | at least 80% | at least 80% | ≤ 20 | – | ≤ 20
12 | CNC(=O)c1cc(Cl)cc(Cl)c1NC(=O)c1cc(C(F)(F)F)nn1-c1ccccc1Cl [Compound 19] | at least 80% | at least 80% | ≤ 20 | – | ≤ 20
13 | CCNC(=O)c1cc(Cl)cc(Cl)c1NC(=O)c1cc(C(F)(F)F)nn1-c1ccccc1Cl [Compound 20] | – | – | ≤ 20 | – | ≤ 20
14 | CNC(=O)c1cc(Cl)cc(C)c1NC(=O)c1cc(Br)nn1-c1ccc(F)cc1Cl [Compound 25] | at least 80% | at least 80% | ≤ 20 | – | ≤ 20
15 | Cc1cc(Cl)cc(C(N)=O)c1NC(=O)c1cc(Br)nn1-c1ccc(F)cc1Cl [Compound 26] | at least 80% | – | ≤ 20 | – | ≤ 20
16 | Cc1cc(Cl)cc(C(=O)NC(C)C)c1NC(=O)c1cc(Br)nn1-c1ccc(F)cc1Cl [Compound 27] | at least 80% | at least 80% | ≤ 20 | – | ≤ 20
17 | Cc1cc(Cl)cc(C(=O)NC(C)C)c1NC(=O)c1cc(OCC(F)(F)F)nn1-c1ccccc1Cl [Compound 31] | at least 80% | – | ≤ 20 | – | ≤ 20
18 | CNC(=O)c1cc(C#N)cc(C)c1NC(=O)c1cc(Br)nn1-c1c(Cl)cccc1Cl [Compound 33] | at least 80% | – | ≤ 20 | – | –
19 | Cc1cc(C#N)cc(C(N)=O)c1NC(=O)c1cc(Br)nn1-c1c(Cl)cccc1Cl [Compound 34] | – | – | ≤ 20 | – | ≤ 20
20 | CNC(=O)c1cc(C#N)cc(C)c1NC(=O)c1cc(C(F)(F)F)nn1-c1c(Cl)cccc1Cl [Compound 35] | at least 80% | – | ≤ 20 | – | ≤ 20
21 | CNC(=O)c1cc(C#N)cc(Br)c1NC(=O)c1cc(Br)nn1-c1ccccc1Cl [Compound 44] | at least 80% | – | ≤ 20 | at least 80% | ≤ 20

Row | Structure (SMILES) | mortality [1] | mortality [2] | excellent levels of plant protection (feeding damage) [3] [%] | mortality [4] | very good to excellent levels of plant protection (feeding damage) [5] [%]
22 | N#Cc1cc(Cl)c(NC(=O)c2cc(Br)nn2-c2ccccc2Cl)c(C(N)=O)c1 [Compound 48] | – | – | ≤ 20 | – | ≤ 20
23 | CNC(=O)c1cc(C#N)cc(Br)c1NC(=O)c1cc(C(F)(F)F)nn1-c1c(Cl)cccc1Cl [Compound 50] | – | – | ≤ 20 | – | ≤ 20
24 | CNC(=O)c1cc(C#N)cc(Br)c1NC(=O)c1cc(Br)nn1-c1ccccc1F [Compound 53] | – | – | ≤ 20 | – | ≤ 20
25 | CC(C)NC(=O)c1cc(C#N)cc(Br)c1NC(=O)c1cc(Br)nn1-c1ccccc1F [Compound 54] | – | at least 80% | ≤ 20 | at least 80% | ≤ 20
26 | N#Cc1cc(Br)c(NC(=O)c2cc(Br)nn2-c2ccccc2F)c(C(N)=O)c1 [Compound 55] | – | – | – | – | ≤ 20
27 | CNC(=O)c1cc(Cl)cc(Cl)c1NC(=O)c1cc(C(F)(F)F)nn1-c1c(Cl)cccc1Cl [Compound 57] | – | – | ≤ 20 | – | ≤ 20
28 | NC(=O)c1cc(Cl)cc(Cl)c1NC(=O)c1cc(C(F)(F)F)nn1-c1c(Cl)cccc1Cl [Compound 59] | – | – | ≤ 20 | – | ≤ 20
29 | Cc1cc(C#N)cc(C(N)=O)c1NC(=O)c1cc(Br)nn1-c1ccccc1F [Compound 71] | – | – | ≤ 20 | – | ≤ 20
30 | N#Cc1cc(Cl)c(NC(=O)c2cc(C(F)(F)F)nn2-c2c(Cl)cccc2Cl)c(C(N)=O)c1 [Compound 75] | – | – | – | – | ≤ 20
31 | N#CCNC(=O)c1cc(C#N)cc(Cl)c1NC(=O)c1cc(C(F)(F)F)nn1-c1c(Cl)cccc1Cl [Compound 77] | – | – | – | – | ≤ 20
32 | CSCC(C)NC(=O)c1cc(Br)cc(Br)c1NC(=O)c1cc(Br)nn1-c1ccccc1Cl (centres unmarked) [Compound 79] | – | – | ≤ 20 | – | ≤ 20
33 | CNC(=O)c1cc(Cl)cc(C)c1NC(=O)c1cc(Br)nn1-c1ccccc1Cl [Compound 83] | – | – | ≤ 20 | – | ≤ 20
34 | CNC(=O)c1cc(C#N)cc(C)c1NC(=O)c1cc(Cl)nn1-c1ccccc1Cl [Compound 85] | – | – | ≤ 20 | – | ≤ 20
35 | Cc1cc(C#N)cc(C(=O)NC(C)(C)C)c1NC(=O)c1cc(C(F)(F)F)nn1-c1ccccc1Cl [Compound 87] | – | – | ≤ 20 | – | ≤ 20
36 | N#CCNC(=O)c1cc(Cl)cc(Cl)c1NC(=O)c1cc(Cl)nn1-c1ccccc1Cl [Compound 88] | – | – | ≤ 20 | – | ≤ 20
37 | Cc1cc(C#N)cc(C(=O)NC(C)(C)C)c1NC(=O)c1cc(Br)nn1-c1ccccc1Cl [Compound 101] | – | – | ≤ 20 | – | ≤ 20
38 | Cc1cc(C#N)cc(C(=O)NC(C)C)c1NC(=O)c1cc(Cl)nn1-c1ccc(F)cc1Cl [Compound 110] | – | – | ≤ 20 | – | –
39 | CC(C)NC(=O)c1cc(Cl)cc(Cl)c1NC(=O)c1cc(C(F)(F)F)nn1-c1c(Cl)cc(Cl)cc1Cl [Compound 120] | – | – | ≤ 20 | – | –
40 | NC(=O)c1cc(Cl)cc(Cl)c1NC(=O)c1cc(C(F)(F)F)nn1-c1c(Cl)cc(Cl)cc1Cl [Compound 121] | – | – | ≤ 20 | – | –
41 | Cc1cc(C#N)cc(C(=O)NC(C)C)c1NC(=O)c1cc(Cl)nn1-c1c(Cl)cccc1Cl [Compound 127] | – | – | ≤ 20 | – | –
